Results on one molecule are retold here after article PMC5643531.

The target of assay [1] is Fz8ΔC-Myc (Fz8 lacking the cytoplasmic domain) (zebrafish). Put plainly: co-IP; HEK293 cells transfected with Flag-tagged OTG/Otg and Fz8-Myc constructs; lysis in 20 mM Hepes pH 7.9, 300 mM NaCl, 100 mM KCl, 10 mM EDTA, 0.2% NP-40, 10% glycerol; IP with anti-FLAG or anti-Myc antibody on protein A-agarose, immunoblot for Myc or Flag.
The target in assay [2] is Frizzled8 receptor, Myc tag (Fz8-Myc) (zebrafish). The assay is described as above.

No constants are given. Whether binding was seen depends on the method and setting. Binding seen in cells or lysates may run through a third protein. Binding can be weak; no strength is given. Sequences can lack the tags named with a protein.

B1: OTTOGI (OTG), human, C-terminal Flag tag (OTG-Flag) (protein, UniProt Q8TB68 1-274)
chain: MVMSQGTYTFLTCFAGFWLIWGLIVLLCCFCSFLRRRLKRRQEERLREQNLRALELEPLELEGSLAGSPPGLAPPQPPPHRSRLEAPAHAHSHPHVHVHPLLHHGPAQPHAHAHPHPHHHALPHPPPTHLSVPPRPWSYPRQAESDMSKPPCYEEAVLMAEPPPPYSEVLTDTRGLYRKIVTPFLSRRDSAEKQEQPPPSYKPLFLDRGYTSALHLPSAPRPAPPCPALCLQADRGRRVFPSWTDSELSSREPLEHGAWRLPVSIPLFGRTTAV
As to B1, the binding result in assay [1] and in assay [2] was “binds” throughout.
